Results from the supplement of paper PMC4604168 (melanoma cell lines).
Some of the results follow. Single values are uncertain, as repeats are few or missing.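 The apoptosis fraction was the count of cleaved-PARP antibody-stained nuclei relative to all DNA-stained nuclei, imaged in 1,536-well plates. Screening doses were set so most cells survived, and baseline and induced cleaved-PARP levels vary greatly across cell lines.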

These compounds were tested on WM1745 (assay: cleaved PARP positive nuclei fraction relative to DMSO control; melanoma cells; higher = more apoptosis). Conditions: library dose: low library concentration; 72 h.
With `O=C(CCCCCCC(=O)Nc1ccccc1)NO` [vorinostat] + O=C(Nc1cccc(Cl)c1)Nc1ncc(CCNc2ncnc3ccsc23)s1 [SNS314] (first compound 0.08 µM, partner dose 0.0008 µM) the “cleaved PARP positive nuclei fraction” value was 121%.
With `Cn1cncc1[C@@](N)(c1ccc(Cl)cc1)c1ccc2c(c1)c(-c1cccc(Cl)c1)cc(=O)n2C` [tipifarnib] + O=C(Nc1ccccc1)c1cc([N+](=O)[O-])ccc1Cl [GW9662] (first compound 0.01 µM, partner dose 2 µM) the “cleaved PARP positive nuclei fraction” value was 81.1%.
For `C[C@@H]1CCN(C(=O)CC#N)C[C@@H]1N(C)c1ncnc2[nH]ccc12` + N#Cc1c(O)c2c(-c3ccc(-c4ccccc4O)cc3)csc2[nH]c1=O [A769662] (first compound 1 µM, partner dose 2 µM), the “cleaved PARP positive nuclei fraction” value was 320%.
In the case of `COCC[n+]1c2c(n(Cc3cnccn3)c1C)C(=O)c1ccccc1C2=O` + CN(NC(=O)CC(=O)NN(C)C(=S)c1ccccc1)C(=S)c1ccccc1 [STA4783] (first compound 0.0004 µM, partner dose 0.006 µM), the “cleaved PARP positive nuclei fraction” value is reported as 382%.
With `O=C(CCCCCCC(=O)Nc1ccccc1)NO` [vorinostat] + COC(=O)c1sccc1S(=O)(=O)Nc1ccc(Nc2ccccc2)cc1OC [GSK0660] (first compound 0.08 µM, partner dose 1 µM) the “cleaved PARP positive nuclei fraction” value was 93.9%.
With `CO[C@@H]1[C@H](N(C)C(=O)c2ccccc2)C[C@H]2O[C@]1(C)n1c3ccccc3c3c4c(c5c6ccccc6n2c5c31)C(=O)NC4` [Midostaurin] + CN(NC(=O)CC(=O)NN(C)C(=S)c1ccccc1)C(=S)c1ccccc1 [STA4783] (first compound 0.08 µM, partner dose 0.006 µM) the “cleaved PARP positive nuclei fraction” value was 174%.
With `NC(=O)Nc1cc(-c2cccc(F)c2)sc1C(=O)N[C@H]1CCCNC1` + O=C1NC(=O)/C(=C/c2ccc(-c3ccc(F)cc3O)o2)S1 [AS252424] (first compound 0.02 µM, partner dose 1 µM) the “cleaved PARP positive nuclei fraction” value was 114%.
`OCc1c[nH]c2ccccc12` [Indole-3-carbinol] + O=c1cc(-c2cccc3c2Sc2ccccc2S3)oc(N2CCOCC2)c1 [KU55933] (first compound 0.8 µM, partner dose 1 µM) was tested, and the “cleaved PARP positive nuclei fraction” value was 188%.
`COCC[n+]1c2c(n(Cc3cnccn3)c1C)C(=O)c1ccccc1C2=O` + C[C@@H]1CCN(C(=O)CC#N)C[C@@H]1N(C)c1ncnc2[nH]ccc12 [CP690550] (first compound 0.0004 µM, partner dose 1 µM) was tested, and the “cleaved PARP positive nuclei fraction” value was 100%.
In the case of `CC(=O)c1c(C)c2cnc(Nc3ccc(N4CCNCC4)cn3)nc2n(C2CCCC2)c1=O` [palbociclib] + COc1ccc(-c2ccc3c(N4CCOCC4)nc(N4C[C@@H](C)O[C@@H](C)C4)nc3n2)cc1CO [KU0063794] (first compound 0.04 µM, partner dose 0.02 µM), the “cleaved PARP positive nuclei fraction” value is reported as 110%.
For `CC(=O)c1c(C)c2cnc(Nc3ccc(N4CCNCC4)cn3)nc2n(C2CCCC2)c1=O` [palbociclib] + COc1ccc(Cl)c(Nc2nc3ccccc3nc2NS(=O)(=O)c2cccc(NC(=O)C(C)(C)N)c2)c1 [XL147] (first compound 0.04 µM, partner dose 0.8 µM), the “cleaved PARP positive nuclei fraction” value was 106%.
For `C=CCn1c(=O)c2cnc(Nc3ccc(N4CCN(C)CC4)cc3)nc2n1-c1cccc(C(C)(C)O)n1` + Cn1cncc1[C@@](N)(c1ccc(Cl)cc1)c1ccc2c(c1)c(-c1cccc(Cl)c1)cc(=O)n2C [tipifarnib] (first compound 0.02 µM, partner dose 0.01 µM), the “cleaved PARP positive nuclei fraction” value was 121%.
For `Cc1cc(N2CCOCC2)cc2[nH]c(-c3c(NC[C@@H](O)c4cccc(Cl)c4)cc[nH]c3=O)nc12` + Cn1cc(/C=C2\C(=O)Nc3cccnc32)c2ccccc21 [GW441756] (first compound 0.2 µM, partner dose 0.4 µM), the “cleaved PARP positive nuclei fraction” value was 128%.
`CC(=O)c1c(C)c2cnc(Nc3ccc(N4CCNCC4)cn3)nc2n(C2CCCC2)c1=O` [palbociclib] + COc1cc2ncnc(Nc3ccc(Oc4ccccc4)cc3)c2cc1OC [SrcI1] (first compound 0.04 µM, partner dose 2 µM) was tested, and the “cleaved PARP positive nuclei fraction” value was 134%.
`OCc1c[nH]c2ccccc12` [Indole-3-carbinol] + C[C@@H]1CCN(C(=O)CC#N)C[C@@H]1N(C)c1ncnc2[nH]ccc12 [CP690550] (first compound 0.8 µM, partner dose 1 µM) was tested, and the “cleaved PARP positive nuclei fraction” value was 98.5%.
With `O=C(CCCCCCC(=O)Nc1ccccc1)NO` [vorinostat] + N#Cc1c(O)c2c(-c3ccc(-c4ccccc4O)cc3)csc2[nH]c1=O [A769662] (first compound 0.08 µM, partner dose 2 µM) the “cleaved PARP positive nuclei fraction” value was 100%.
For `C[C@@H]1CCN(C(=O)CC#N)C[C@@H]1N(C)c1ncnc2[nH]ccc12` + O=S(=O)(c1ccccc1)N(CC(F)(F)F)c1ccc(C(O)(C(F)(F)F)C(F)(F)F)cc1 [T0901317] (first compound 1 µM, partner dose 1.4 µM), the “cleaved PARP positive nuclei fraction” value was 707%.
For `NC(=O)Nc1cc(-c2cccc(F)c2)sc1C(=O)N[C@H]1CCCNC1` + COC(=O)c1sccc1S(=O)(=O)Nc1ccc(Nc2ccccc2)cc1OC [GSK0660] (first compound 0.02 µM, partner dose 1 µM), the “cleaved PARP positive nuclei fraction” value was 80.9%.
For `C[C@]1(c2nc3c(C(N)=O)cccc3[nH]2)CCCN1` [Veliparib] + O=C(Nc1cccc(Cl)c1)Nc1ncc(CCNc2ncnc3ccsc23)s1 [SNS314] (first compound 1.4 µM, partner dose 0.0008 µM), the “cleaved PARP positive nuclei fraction” value was 109%.
In the case of `C[C@]1(c2nc3c(C(N)=O)cccc3[nH]2)CCCN1` [Veliparib] + OCCn1cc(-c2cnc3nnn(Cc4ccc5ncccc5c4)c3n2)cn1 [PF04217903] (first compound 1.4 µM, partner dose 1 µM), the “cleaved PARP positive nuclei fraction” value is reported as 99.7%.
For `COc1cc(Nc2ncc(F)c(Nc3ccc4c(n3)NC(=O)C(C)(C)O4)n2)cc(OC)c1OC` [Tamatinib] + CC(C)(C)c1cnc(CSc2cnc(NC(=O)C3CCNCC3)s2)o1 [SNS-032] (first compound 0.4 µM, partner dose 0.01 µM), the “cleaved PARP positive nuclei fraction” value was 124%.
`NC(=O)Nc1cc(-c2cccc(F)c2)sc1C(=O)N[C@H]1CCCNC1` + O=C(Nc1ccccc1)c1cc([N+](=O)[O-])ccc1Cl [GW9662] (first compound 0.02 µM, partner dose 2 µM) was tested, and the “cleaved PARP positive nuclei fraction” value was 91.1%.
For `C#Cc1cccc(Nc2ncnc3cc(OCCOC)c(OCCOC)cc23)c1` [erlotinib] + Cn1c(Nc2ccc(C(F)(F)F)cc2)nc2cc(Oc3ccnc(-c4ncc(C(F)(F)F)[nH]4)c3)ccc21 [CHIR265] (first compound 0.8 µM, partner dose 0.08 µM), the “cleaved PARP positive nuclei fraction” value was 123%.
In the case of `C#Cc1cccc(Nc2ncnc3cc(OCCOC)c(OCCOC)cc23)c1` [erlotinib] + C=CCn1c(=O)c2cnc(Nc3ccc(N4CCN(C)CC4)cc3)nc2n1-c1cccc(C(C)(C)O)n1 [MK1775] (first compound 0.8 µM, partner dose 0.02 µM), the “cleaved PARP positive nuclei fraction” value is reported as 144%.
For `COCC[n+]1c2c(n(Cc3cnccn3)c1C)C(=O)c1ccccc1C2=O` + COC(=O)c1sccc1S(=O)(=O)Nc1ccc(Nc2ccccc2)cc1OC [GSK0660] (first compound 0.0004 µM, partner dose 1 µM), the “cleaved PARP positive nuclei fraction” value was 101%.
In the case of `NC(=O)Nc1cc(-c2cccc(F)c2)sc1C(=O)N[C@H]1CCCNC1` + COc1ccc(COc2ccc(Cc3cnc(N)nc3N)cc2OC)cc1 [GW2580] (first compound 0.02 µM, partner dose 1 µM), the “cleaved PARP positive nuclei fraction” value is reported as 110%.
In the case of `Cc1cc(N2CCOCC2)cc2[nH]c(-c3c(NC[C@@H](O)c4cccc(Cl)c4)cc[nH]c3=O)nc12` + CN(C)S(=O)(=O)c1ccc2c(c1)/C(=C/c1cc3c([nH]1)CCCC3)C(=O)N2 [SU6656] (first compound 0.2 µM, partner dose 0.4 µM), the “cleaved PARP positive nuclei fraction” value is reported as 144%.
`C[C@@H]1CCN(C(=O)CC#N)C[C@@H]1N(C)c1ncnc2[nH]ccc12` + O=C1NC(=O)/C(=C/c2ccc(-c3ccc(F)cc3O)o2)S1 [AS252424] (first compound 1 µM, partner dose 1 µM) was tested, and the “cleaved PARP positive nuclei fraction” value was 100%.
With `NC(=O)Nc1cc(-c2cccc(F)c2)sc1C(=O)N[C@H]1CCCNC1` + CC(C)CCN1c2nc(Nc3cc(F)c(O)c(F)c3)ncc2N(C)C(=O)C1C [BID1870] (first compound 0.02 µM, partner dose 0.2 µM) the “cleaved PARP positive nuclei fraction” value was 105%.
`CO[C@@H]1[C@H](N(C)C(=O)c2ccccc2)C[C@H]2O[C@]1(C)n1c3ccccc3c3c4c(c5c6ccccc6n2c5c31)C(=O)NC4` [Midostaurin] + Cc1cc([N+](=O)[O-])ccc1NS(=O)(=O)c1cc(Cl)ccc1Cl [FH535] (first compound 0.08 µM, partner dose 1 µM) was tested, and the “cleaved PARP positive nuclei fraction” value was 130%.
With `CO[C@@H]1[C@H](N(C)C(=O)c2ccccc2)C[C@H]2O[C@]1(C)n1c3ccccc3c3c4c(c5c6ccccc6n2c5c31)C(=O)NC4` [Midostaurin] + O=C(O)C(=O)Nc1sc2c(c1C(=O)O)CCNC2 [TCS401] (first compound 0.08 µM, partner dose 1.66667 µM) the “cleaved PARP positive nuclei fraction” value was 103%.
With `Cn1nnc2c(C(N)=O)ncn2c1=O` [temozolomide] + Cn1cc(/C=C2\C(=O)Nc3cccnc32)c2ccccc21 [GW441756] (first compound 2 µM, partner dose 0.4 µM) the “cleaved PARP positive nuclei fraction” value was 132%.
`CC(C)(C)c1cnc(CSc2cnc(NC(=O)C3CCNCC3)s2)o1` + O=C(O)c1ccc(-c2c[nH]c3ncc(-c4ccccc4)cc23)cc1C1CCCC1 [GSK650394] (first compound 0.01 µM, partner dose 0.16 µM) was tested, and the “cleaved PARP positive nuclei fraction” value was 82.8%.
